Reference: PMC6857588
Results are given in words; binding and its absence hold for the method and conditions named. Some entries that bind do so weakly or less than the wild type.

The chains behind the UniProt entries cited, without tags or fusion partners. Where a name states a change or a piece, a line headed by the entry shows the natural chain unless it says otherwise. A line that says so, or that is headed by a name, gives the form on record, which may keep a tag or linker.
NMY-2 S1 fragment R252A (heavy chain alone) (G5EBY3, form named): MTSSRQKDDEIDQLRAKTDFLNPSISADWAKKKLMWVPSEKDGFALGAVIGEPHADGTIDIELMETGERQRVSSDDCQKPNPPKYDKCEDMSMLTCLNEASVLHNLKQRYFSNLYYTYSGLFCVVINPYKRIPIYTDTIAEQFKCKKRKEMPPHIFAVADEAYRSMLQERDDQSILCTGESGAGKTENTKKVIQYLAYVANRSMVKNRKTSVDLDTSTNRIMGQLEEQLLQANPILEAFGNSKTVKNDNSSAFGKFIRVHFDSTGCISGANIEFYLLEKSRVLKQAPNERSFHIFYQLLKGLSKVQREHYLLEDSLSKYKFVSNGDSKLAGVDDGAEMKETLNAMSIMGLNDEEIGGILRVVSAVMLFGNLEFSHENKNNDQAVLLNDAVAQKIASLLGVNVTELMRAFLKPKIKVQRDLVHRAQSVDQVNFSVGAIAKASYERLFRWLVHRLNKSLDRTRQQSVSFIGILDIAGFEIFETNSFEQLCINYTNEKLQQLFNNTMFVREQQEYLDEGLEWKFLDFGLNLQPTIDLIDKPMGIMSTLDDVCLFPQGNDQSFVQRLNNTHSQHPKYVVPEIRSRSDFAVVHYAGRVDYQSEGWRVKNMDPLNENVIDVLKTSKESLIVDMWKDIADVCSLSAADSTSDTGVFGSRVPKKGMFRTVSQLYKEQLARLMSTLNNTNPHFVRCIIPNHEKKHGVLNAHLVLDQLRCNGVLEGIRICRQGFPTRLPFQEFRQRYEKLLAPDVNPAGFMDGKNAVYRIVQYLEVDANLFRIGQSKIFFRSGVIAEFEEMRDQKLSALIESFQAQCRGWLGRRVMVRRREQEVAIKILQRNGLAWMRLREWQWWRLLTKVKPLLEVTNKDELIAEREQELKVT
NMY-2 S1 fragment S251A (heavy chain alone) (G5EBY3, form named): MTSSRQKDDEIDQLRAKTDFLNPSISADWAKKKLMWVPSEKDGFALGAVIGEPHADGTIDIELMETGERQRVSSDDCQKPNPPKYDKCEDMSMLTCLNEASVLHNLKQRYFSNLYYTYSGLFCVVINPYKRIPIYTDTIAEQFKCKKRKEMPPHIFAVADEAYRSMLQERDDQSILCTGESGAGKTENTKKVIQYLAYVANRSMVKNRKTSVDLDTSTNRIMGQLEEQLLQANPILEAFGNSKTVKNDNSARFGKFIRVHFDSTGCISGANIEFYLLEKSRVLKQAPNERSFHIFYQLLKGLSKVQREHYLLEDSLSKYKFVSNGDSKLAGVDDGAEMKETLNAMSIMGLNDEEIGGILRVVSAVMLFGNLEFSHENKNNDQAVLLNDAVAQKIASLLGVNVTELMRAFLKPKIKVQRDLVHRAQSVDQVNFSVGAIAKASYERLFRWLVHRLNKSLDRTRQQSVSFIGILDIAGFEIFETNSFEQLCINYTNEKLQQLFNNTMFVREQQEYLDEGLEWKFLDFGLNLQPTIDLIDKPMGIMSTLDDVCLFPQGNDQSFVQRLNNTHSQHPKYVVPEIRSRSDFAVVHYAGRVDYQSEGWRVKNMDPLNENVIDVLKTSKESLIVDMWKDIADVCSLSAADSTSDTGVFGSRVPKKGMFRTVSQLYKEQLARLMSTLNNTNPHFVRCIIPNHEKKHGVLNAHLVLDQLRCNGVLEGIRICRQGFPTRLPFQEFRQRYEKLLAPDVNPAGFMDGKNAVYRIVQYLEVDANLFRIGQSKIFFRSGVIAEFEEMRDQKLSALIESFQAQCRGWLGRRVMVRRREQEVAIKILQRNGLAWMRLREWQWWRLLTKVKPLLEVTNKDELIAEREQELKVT
wild-type NMY-2 HMM fragment (heavy chain alone) (G5EBY3, form named): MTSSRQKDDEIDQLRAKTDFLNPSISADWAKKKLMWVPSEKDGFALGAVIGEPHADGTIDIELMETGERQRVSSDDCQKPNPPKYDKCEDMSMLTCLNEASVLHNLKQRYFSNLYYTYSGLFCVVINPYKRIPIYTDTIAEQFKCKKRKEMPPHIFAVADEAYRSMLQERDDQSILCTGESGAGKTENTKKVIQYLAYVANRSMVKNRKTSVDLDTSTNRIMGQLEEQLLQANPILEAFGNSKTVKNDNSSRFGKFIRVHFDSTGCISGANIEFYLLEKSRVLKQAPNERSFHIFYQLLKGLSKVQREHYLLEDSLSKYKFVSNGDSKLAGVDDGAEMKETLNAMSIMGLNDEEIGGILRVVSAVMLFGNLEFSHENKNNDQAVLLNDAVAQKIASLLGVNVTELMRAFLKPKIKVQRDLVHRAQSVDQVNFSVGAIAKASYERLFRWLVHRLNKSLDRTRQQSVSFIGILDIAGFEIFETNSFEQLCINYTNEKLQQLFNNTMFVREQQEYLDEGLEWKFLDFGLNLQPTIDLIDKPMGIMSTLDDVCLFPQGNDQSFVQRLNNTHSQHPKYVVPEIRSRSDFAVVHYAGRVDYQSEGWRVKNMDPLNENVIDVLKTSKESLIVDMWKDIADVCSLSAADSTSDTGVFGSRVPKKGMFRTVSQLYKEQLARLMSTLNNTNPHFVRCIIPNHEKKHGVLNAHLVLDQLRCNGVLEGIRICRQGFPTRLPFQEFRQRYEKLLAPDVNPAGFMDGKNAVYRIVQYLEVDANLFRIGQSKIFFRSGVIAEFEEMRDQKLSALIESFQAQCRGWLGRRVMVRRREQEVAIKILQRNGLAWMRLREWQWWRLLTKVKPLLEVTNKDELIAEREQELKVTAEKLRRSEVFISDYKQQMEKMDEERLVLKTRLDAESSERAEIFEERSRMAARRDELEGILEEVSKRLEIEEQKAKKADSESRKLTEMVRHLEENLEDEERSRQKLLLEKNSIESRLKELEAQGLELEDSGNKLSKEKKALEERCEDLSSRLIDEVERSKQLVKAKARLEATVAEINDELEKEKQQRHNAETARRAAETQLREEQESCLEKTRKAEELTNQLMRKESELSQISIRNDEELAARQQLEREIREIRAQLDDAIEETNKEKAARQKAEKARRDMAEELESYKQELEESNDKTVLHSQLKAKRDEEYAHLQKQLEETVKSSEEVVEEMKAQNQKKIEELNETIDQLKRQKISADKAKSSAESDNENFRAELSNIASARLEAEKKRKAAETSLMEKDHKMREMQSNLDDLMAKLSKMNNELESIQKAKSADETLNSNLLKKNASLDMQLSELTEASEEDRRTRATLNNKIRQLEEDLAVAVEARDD
wild-type NMY-2 S1 fragment (heavy chain alone) (G5EBY3, form named): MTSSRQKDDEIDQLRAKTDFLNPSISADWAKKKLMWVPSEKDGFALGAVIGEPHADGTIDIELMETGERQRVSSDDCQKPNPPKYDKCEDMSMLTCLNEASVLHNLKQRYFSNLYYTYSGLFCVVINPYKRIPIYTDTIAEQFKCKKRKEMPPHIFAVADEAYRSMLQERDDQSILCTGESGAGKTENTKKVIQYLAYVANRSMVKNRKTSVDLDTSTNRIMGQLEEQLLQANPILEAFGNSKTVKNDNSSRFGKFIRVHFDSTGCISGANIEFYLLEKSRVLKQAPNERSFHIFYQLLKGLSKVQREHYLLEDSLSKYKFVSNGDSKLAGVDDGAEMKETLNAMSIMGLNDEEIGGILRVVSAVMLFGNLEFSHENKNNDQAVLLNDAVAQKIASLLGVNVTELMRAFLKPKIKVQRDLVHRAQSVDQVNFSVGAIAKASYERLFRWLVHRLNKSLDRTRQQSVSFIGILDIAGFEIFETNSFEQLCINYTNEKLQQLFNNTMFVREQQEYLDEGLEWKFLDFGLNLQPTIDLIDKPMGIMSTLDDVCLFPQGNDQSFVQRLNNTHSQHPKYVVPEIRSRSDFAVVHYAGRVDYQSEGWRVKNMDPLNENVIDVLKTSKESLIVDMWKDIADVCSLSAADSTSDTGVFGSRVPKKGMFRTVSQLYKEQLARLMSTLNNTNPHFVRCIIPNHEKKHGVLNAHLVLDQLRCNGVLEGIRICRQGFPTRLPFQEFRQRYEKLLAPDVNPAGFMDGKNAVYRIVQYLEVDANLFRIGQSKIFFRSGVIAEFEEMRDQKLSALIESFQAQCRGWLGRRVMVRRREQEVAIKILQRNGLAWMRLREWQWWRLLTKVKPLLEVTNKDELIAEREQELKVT

How the values were obtained:
[1] = target: T1, myosin essential light chain MLC-5 (C. elegans) (UniProt Q9XVI9); assay: co-purification (Strep-Tactin affinity chromatography, then SEC); co-expressed in Sf21 cells; lysate on Strep-Tactin Sepharose (StrepTagII on MLC-4 and MLC-5), washes with 500 mM NaCl, then Superose 6 increase 10/300
T1 sequence: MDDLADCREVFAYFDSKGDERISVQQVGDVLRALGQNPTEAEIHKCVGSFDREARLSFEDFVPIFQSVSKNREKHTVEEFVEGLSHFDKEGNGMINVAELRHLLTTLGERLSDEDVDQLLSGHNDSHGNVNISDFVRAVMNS

[2] = target: T2, myosin regulatory light chain MLC-4 (C. elegans) (UniProt Q09510); assay: as above
T2 sequence: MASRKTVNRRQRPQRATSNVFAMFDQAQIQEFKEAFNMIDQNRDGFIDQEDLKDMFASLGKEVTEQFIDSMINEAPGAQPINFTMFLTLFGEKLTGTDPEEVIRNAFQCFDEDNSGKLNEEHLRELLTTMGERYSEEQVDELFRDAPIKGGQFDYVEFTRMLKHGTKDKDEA

[3] = target: T1, myosin essential light chain MLC-5 (C. elegans); assay: co-purification (tandem Strep-Tactin and Ni-NTA affinity chromatography); co-expressed in Sf21 cells; lysate on Strep-Tactin Sepharose (StrepTagII on MLC-4 and MLC-5), eluate on Ni-NTA beads (6xHis on the NMY-2 HMM fragment), 500 mM NaCl
[4] = target: T2, myosin regulatory light chain MLC-4 (C. elegans); assay: as above

## NMY-2 S1 fragment R252A (heavy chain alone) (from UniProt G5EBY3 1-874) (domain or fragment)
[1]
  binding: binds
[2]
  binding: binds

## NMY-2 S1 fragment S251A (heavy chain alone) (from UniProt G5EBY3 1-874) (domain or fragment)
[1]
  binding: binds
[2]
  binding: binds

## wild-type NMY-2 HMM fragment (heavy chain alone) (from UniProt G5EBY3 1-1364) (domain or fragment)
[3]
  binding: binds
[4]
  binding: binds

## wild-type NMY-2 S1 fragment (heavy chain alone) (from UniProt G5EBY3 1-874) (domain or fragment)
[1]
  binding: binds
[2]
  binding: binds
